Experimental data taken from patent US9616129B2, “Compositions and methods for potentiating immune response, enhancing immunotherapy, and increasing vaccine potency” (Nitor Therapeutics, priority 2013, dated 2017).
Some entries share one result that the patent states for a list of compounds.

Test system: L. monocytogenes (ATCC Strain35152, hemolytic substrain)
Test: Mouse model of L. monocytogenes infection
Assay type: in vivo
Details: Balb/c mice infected i.v. with 1×10^6 CFU; treatments per Table 3; FIGS. 8 and 10

O=c1[nH]cnc2c(CN3C[C@H](CO)[C@@H](O)C3)c[nH]c12 [NTR002, 1,5-dihydro-7-[[(3R,4R)-3-hydroxy-4-(hydroxymethyl)pyrrolidin-1-yl]methyl]-4H-pyrrolo[3,2-d]pyrimidin-4-one]
protection of animals (survival): 10-20%
